Source: patent publication US9321796B2, “Galactopyranosyl derivatives useful as medicaments” (Universiteit Gent, priority 2012, dated 2016)
Some entries share one result that the patent states for a list of compounds.

System: murine iNKT hybridoma N38-2C12
Experiment: Co-culture of glycolipid-pulsed BMDC with iNKT cell hybridoma 2C12, IL-2 by ELISA
Assay type: cell-based
Details: BMDC loaded 20 hours with 100 ng/mL glycolipid, 16 hours co-culture with 2C12 cells
Experimental: The murine iNKT hybridoma N38-2C12 (Vα14Vβ8.1/8.2b) was provided by Brown University, Providence, Rhode Island, USA). Cells were cultured in DMEM Sigma) supplemented with 10% fetal calf serum (Invitrogen), 1% glutamine (Sigma), 1% penicillin streptomycin (Sigma), and 2-mercapto-ethanol (Sigma) (hereinafter called cDMEM). B16 melanoma cells were cultured in advanced RPMI (Sigma) supplemented with 10% fetal calf serum (Invitrogen), 1% glutamine (Sigma) and 1% penicillin streptomycin (Sigma). They were harvested using cell dissociation buffer, which was washed away twice first using the medium and second with PBS. 400,000 cells were intravenously (IV) injected within 30 minutes after harvest into the tail vein.
For in vitro stimulation, murine iNKT hybridoma cells at 5·10^4 cells/well in 96-well plates were stimulated with the 10^5 cells/well glycolipid pulsed BMDCs in cDMEM for 4, 16 or 24 hours at […], and levels of murine IL-2 secretion were determined by ELISA.
iNKT cell polarization is a matter of debate and it has been shown uptake by different cells can also affect the outcome. To avoid these host dependent parameters we set up a simple in vitro model, which consists of co-cultures of glycolipid-pulsed bone marrow dendritic cells and an iNKT cell hybridoma (i.c. 2C12 containing a Vβ8.2 TCR). IL-2 production is used as a read-out for TCR affinity for the whole CD1d-glycolipid complex. […] To confirm this we also measured intracellular IL-2 production in 2C12 cells already 4 hours after coculture, where a similar result was obtained (FIG. 2). Because IL-2 production is a downstream event of TCR signaling we analyzed TCRβ expression.
In order to assess the antigenic activity of the triazolyl-containing galactopyranosyl compounds of example 10, bone marrow dendritic cells (BMDC) were loaded during 20 hours with 100 ng/mL glycolipid. After 16 hours of co-culture with 2C12 cells (iNKT cell hybridoma), IL-2 secretion was determined by ELISA.

Substance | IL-2 secretion
(2S,3S,4R)-1-O-(6-deoxy-6-(4-butyltriazol-1-yl)-α-D-galactopyranosyl)-2-hexacosylamino-octadecane-1,3,4-triol [Compound 44] | higher than or comparable to α-GalCer
(2S,3S,4R)-1-O-(6-deoxy-6-(4-phenyltriazol-1-yl)-α-D-galactopyranosyl)-2-hexacosylamino-octadecane-1,3,4-triol [Compound 45] | higher than or comparable to α-GalCer
(2S,3S,4R)-1-O-(6-deoxy-6-(4-propylphenyltriazol-1-yl)-α-D-galactopyranosyl)-2-hexacosylamino-octadecane-1,3,4-triol [Compound 48] | higher than or comparable to α-GalCer
(2 S,3S,4R)-1-O-(6-deoxy-6-(4-benzyltriazol-1-yl)-α-D-galactopyranosyl)-2-hexacosylamino-octadecane-1,3,4-triol [Compound 46] | higher than or comparable to α-GalCer
(2S,3S,4R)-1-O-(6-deoxy-6-(4-ethylphenyltriazol-1-yl)-α-D-galactopyranosyl)-2-hexacosylamino-octadecane-1,3,4-triol [Compound 47] | higher than or comparable to α-GalCer
